Results: article PMC10510122

Sequences of proteins named here, by UniProt entry; tags and fusion partners are left off. A change or cut given only in a name is not applied to a line headed by its entry. Residues count along the entry.
UniProt P10451, residues 17-314: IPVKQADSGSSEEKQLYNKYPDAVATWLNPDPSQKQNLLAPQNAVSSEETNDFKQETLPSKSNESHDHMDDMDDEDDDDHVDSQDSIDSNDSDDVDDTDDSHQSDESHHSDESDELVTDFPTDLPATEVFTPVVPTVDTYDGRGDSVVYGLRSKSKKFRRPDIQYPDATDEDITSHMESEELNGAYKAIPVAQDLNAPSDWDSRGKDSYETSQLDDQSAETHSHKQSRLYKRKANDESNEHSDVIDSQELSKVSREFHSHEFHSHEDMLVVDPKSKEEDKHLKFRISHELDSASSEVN
UniProt P16070, residues 21-742: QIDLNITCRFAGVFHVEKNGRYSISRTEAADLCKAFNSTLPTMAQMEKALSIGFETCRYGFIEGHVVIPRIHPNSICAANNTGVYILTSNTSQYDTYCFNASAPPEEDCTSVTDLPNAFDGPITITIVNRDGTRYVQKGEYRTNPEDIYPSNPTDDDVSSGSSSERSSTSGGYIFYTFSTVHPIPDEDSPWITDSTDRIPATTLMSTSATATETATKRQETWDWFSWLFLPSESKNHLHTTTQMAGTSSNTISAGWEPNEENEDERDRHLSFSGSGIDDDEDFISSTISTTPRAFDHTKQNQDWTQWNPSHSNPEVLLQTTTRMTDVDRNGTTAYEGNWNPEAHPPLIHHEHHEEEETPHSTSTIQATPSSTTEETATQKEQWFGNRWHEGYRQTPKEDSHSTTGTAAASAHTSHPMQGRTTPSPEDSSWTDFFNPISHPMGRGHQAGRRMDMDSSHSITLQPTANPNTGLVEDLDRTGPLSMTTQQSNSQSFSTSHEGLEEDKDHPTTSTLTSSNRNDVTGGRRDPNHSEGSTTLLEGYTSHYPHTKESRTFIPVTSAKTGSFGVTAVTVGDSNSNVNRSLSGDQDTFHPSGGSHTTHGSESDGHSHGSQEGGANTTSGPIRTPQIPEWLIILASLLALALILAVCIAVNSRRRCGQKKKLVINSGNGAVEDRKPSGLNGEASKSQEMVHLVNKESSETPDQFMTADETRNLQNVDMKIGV
UniProt P05556: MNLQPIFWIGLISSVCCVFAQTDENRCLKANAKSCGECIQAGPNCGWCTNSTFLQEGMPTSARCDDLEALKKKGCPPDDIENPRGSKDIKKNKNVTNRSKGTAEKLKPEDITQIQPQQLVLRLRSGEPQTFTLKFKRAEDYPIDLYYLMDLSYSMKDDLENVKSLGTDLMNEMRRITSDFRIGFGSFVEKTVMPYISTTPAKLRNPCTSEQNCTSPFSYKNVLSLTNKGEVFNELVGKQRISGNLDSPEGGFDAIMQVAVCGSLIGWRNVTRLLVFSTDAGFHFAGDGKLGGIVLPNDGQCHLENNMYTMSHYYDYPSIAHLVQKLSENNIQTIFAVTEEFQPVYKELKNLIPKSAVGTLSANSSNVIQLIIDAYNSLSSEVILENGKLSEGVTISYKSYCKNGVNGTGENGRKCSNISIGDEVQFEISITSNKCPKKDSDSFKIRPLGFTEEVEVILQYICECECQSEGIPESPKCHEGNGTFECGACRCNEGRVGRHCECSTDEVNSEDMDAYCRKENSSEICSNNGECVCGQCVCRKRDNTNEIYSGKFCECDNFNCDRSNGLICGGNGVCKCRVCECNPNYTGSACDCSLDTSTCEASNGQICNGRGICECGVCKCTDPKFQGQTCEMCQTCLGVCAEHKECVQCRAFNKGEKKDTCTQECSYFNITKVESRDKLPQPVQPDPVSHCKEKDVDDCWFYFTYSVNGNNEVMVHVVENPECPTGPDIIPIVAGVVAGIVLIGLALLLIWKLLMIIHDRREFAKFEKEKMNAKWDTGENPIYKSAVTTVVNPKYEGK
UniProt O43795: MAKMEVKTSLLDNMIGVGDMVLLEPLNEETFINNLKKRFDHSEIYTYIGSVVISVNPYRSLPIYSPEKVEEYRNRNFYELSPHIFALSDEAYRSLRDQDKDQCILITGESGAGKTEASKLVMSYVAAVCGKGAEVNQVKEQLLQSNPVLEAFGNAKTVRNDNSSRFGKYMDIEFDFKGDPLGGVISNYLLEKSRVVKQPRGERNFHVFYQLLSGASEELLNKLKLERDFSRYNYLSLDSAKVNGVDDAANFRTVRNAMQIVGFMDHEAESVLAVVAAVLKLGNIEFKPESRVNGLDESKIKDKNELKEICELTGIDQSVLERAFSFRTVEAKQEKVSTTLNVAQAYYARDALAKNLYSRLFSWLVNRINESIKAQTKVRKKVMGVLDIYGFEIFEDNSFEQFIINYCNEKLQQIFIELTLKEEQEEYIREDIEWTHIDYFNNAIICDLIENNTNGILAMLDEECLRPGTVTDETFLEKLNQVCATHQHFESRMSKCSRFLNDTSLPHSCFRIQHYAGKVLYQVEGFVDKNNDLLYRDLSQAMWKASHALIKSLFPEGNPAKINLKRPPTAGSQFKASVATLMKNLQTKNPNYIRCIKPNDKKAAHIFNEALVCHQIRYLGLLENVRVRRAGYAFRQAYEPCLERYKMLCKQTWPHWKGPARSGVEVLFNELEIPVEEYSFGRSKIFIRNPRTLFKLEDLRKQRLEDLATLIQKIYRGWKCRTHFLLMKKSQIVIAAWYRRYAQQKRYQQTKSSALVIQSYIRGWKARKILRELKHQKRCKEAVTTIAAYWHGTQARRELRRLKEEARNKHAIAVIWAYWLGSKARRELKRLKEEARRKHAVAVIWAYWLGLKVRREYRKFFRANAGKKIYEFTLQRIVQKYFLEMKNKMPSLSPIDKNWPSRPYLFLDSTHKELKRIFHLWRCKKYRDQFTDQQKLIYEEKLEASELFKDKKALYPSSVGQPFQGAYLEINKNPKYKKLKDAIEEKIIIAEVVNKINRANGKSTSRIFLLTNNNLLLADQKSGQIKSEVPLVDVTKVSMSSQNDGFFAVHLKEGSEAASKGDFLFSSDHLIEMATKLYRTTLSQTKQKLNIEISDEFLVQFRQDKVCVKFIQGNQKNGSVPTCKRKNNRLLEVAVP

Target: Osteopontin (OPN), recombinant (not stated (human or mouse recombinant OPN bought)) (UniProt P10451)
Experiment: affinity purification with mass spectrometry; A549 cells treated with OPN (1 μg/ml) or not for 48 h, lysed; OPN co-IP with the Thermo Scientific Pierce Co-IP kit; the co-IP protein mix analysed by mass spectrometry; only the target purified

binding	Molecule
binds	CD44 (from UniProt P16070 21-742) (receptor)
binds	ITGB1 (from UniProt P05556 21-798) (receptor)
binds	MYO1B (from UniProt O43795 1-1136)
binds	JUP (protein, UniProt P14923 1-745) MEVMNLMEQPIKVTEWQQTYTYDSGIHSGANTCVPSVSSKGIMEEDEACGRQYTLKKTTTYTQGVPPSQGDLEYQMSTTARAKRVREAMCPGVSGEDSSLLLATQVEGQATNLQRLAEPSQLLKSAIVHLINYQDDAELATRALPELTKLLNDEDPVVVTKAAMIVNQLSKKEASRRALMGSPQLVAAVVRTMQNTSDLDTARCTTSILHNLSHHREGLLAIFKSGGIPALVRMLSSPVESVLFYAITTLHNLLLYQEGAKMAVRLADGLQKMVPLLNKNNPKFLAITTDCLQLLAYGNQESKLIILANGGPQALVQIMRNYSYEKLLWTTSRVLKVLSVCPSNKPAIVEAGGMQALGKHLTSNSPRLVQNCLWTLRNLSDVATKQEGLESVLKILVNQLSVDDVNVLTCATGTLSNLTCNNSKNKTLVTQNSGVEALIHAILRAGDKDDITEPAVCALRHLTSRHPEAEMAQNSVRLNYGIPAIVKLLNQPNQWPLVKATIGLIRNLALCPANHAPLQEAAVIPRLVQLLVKAHQDAQRHVAAGTQQPYTDGVRMEEIVEGCTGALHILARDPMNRMEIFRLNTIPLFVQLLYSSVENIQRVAAGVLCELAQDKEAADAIDAEGASAPLMELLHSRNEGTATYAAAVLFRISEDKNPDYRKRVSVELTNSLFKHDPAAWEAAQSMIPINEPYGDDMDATYRPMYSSDVPLDPLEMHMDMDGDYPIDTYSDGLRPPYPTADHMLA

These are yes or no findings as the source states them, for the method shown. In cells and extracts the contact can be indirect. These calls come from enrichment with a bait or labelling near it, and not all partners need be listed.
